Reference: patent US11220671B2, “Methods for the maturation of cardiomyocytes on amniotic fluid cell-derived ECM, cellular constructs, and uses for cardiotoxicity and proarrhythmic screening of drug compounds” (STEMBIOSYS, INC., priority 2019, dated 2022)

Assay: Composition of amniotic fluid cell-derived ECM by mass spectrometry (total spectra count)
[1] = amniotic fluid cell-derived ECM Matrix A, mass spectrometry, label = protein component
[2] = amniotic fluid cell-derived ECM Matrix B, mass spectrometry, label = protein component
[3] = amniotic fluid cell-derived ECM Matrix C, mass spectrometry, label = protein component
[4] = amniotic fluid cell-derived ECM Matrix D, mass spectrometry, label = protein component

| Molecule | Total Spectra Count Matrix A [1] | Total Spectra Count Matrix B [2] | Total Spectra Count Matrix C [3] | Total Spectra Count Matrix D [4] | Total Spectra Count Matrix A (protein component found by mass spectrometry in amniotic fluid cell-derived ECM Matrix A (Example 1)) | Total Spectra Count Matrix B (protein component found by mass spectrometry in amniotic fluid cell-derived ECM Matrix B (Example 1)) | Total Spectra Count Matrix C (protein component found by mass spectrometry in amniotic fluid cell-derived ECM Matrix C (Example 1)) | Total Spectra Count Matrix D (protein component found by mass spectrometry in amniotic fluid cell-derived ECM Matrix D (Example 1)) |
| --- | --- | --- | --- | --- | --- | --- | --- | --- |
| Hyaluronan and proteoglycan link protein 3 (protein, UniProt Q96S86 18-360, looked up) Hyaluronan and proteoglycan …: LPFYNGFYYSNSANDQNLGNGHGKDLLNGVKLVVETPEETLFTYQGASVILPCRYRYEPALVSPRRVRVKWWKLSENGAPEKDVLVAIGLRHRSFGDYQGRVHLRQDKEHDVSLEIQDLRLEDYGRYRCEVIDGLEDESGLVELELRGVVFPYQSPNGRYQFNFHEGQQVCAEQAAVVASFEQLFRAWEEGLDWCNAGWLQDATVQYPIMLPRQPCGGPGLAPGVRSYGPRHRRLHRYDVFCFATALKGRVYYLEHPEKLTLTEAREACQEDDATIAKVGQLFAAWKFHGLDRCDAGWLADGSVRYPVVHPHPNCGPPEPGVRSFGFPDPQSRLYGVYCYRQH | 0 | 6 | 0 | 0 | – | – | – | – |
| Intercellular adhesion molecule 1 (protein, UniProt P05362 28-532, looked up) Intercellular adhesion …: QTSVSPSKVILPRGGSVLVTCSTSCDQPKLLGIETPLPKKELLLPGNNRKVYELSNVQEDSQPMCYSNCPDGQSTAKTFLTVYWTPERVELAPLPSWQPVGKNLTLRCQVEGGAPRANLTVVLLRGEKELKREPAVGEPAEVTTTVLVRRDHHGANFSCRTELDLRPQGLELFENTSAPYQLQTFVLPATPPQLVSPRVLEVDTQGTVVCSLDGLFPVSEAQVHLALGDQRLNPTVTYGNDSFSAKASVSVTAEDEGTQRLTCAVILGNQSQETLQTVTIYSFPAPNVILTKPEVSEGTEVTVKCEAHPRAKVTLNGVPAQPLGPRAQLLLKATPEDNGRSFSCSATLEVAGQLIHKNQTRELRVLYGPRLDERDCPGNWTWPENSQQTPMCQAWGNPLPELKCLKDGTFPLPIGESVTVTRDLEGTYLCRARSTQGEVTRKVTVNVLSPRYEIVIITVVAAAVIMGTAGLSTYLYNRQRKIKKYRLQQAQKGTPMKPNTQATPP | 0 | 16 | 0 | 0 | – | – | – | – |
| T-complex protein 1 subunit theta (protein, UniProt P50990 2-548, looked up) T-complex protein 1 subunit …: ALHVPKAPGFAQMLKEGAKHFSGLEEAVYRNIQACKELAQTTRTAYGPNGMNKMVINHLEKLFVTNDAATILRELEVQHPAAKMIVMASHMQEQEVGDGTNFVLVFAGALLELAEELLRIGLSVSEVIEGYEIACRKAHEILPNLVCCSAKNLRDIDEVSSLLRTSIMSKQYGNEVFLAKLIAQACVSIFPDSGHFNVDNIRVCKILGSGISSSSVLHGMVFKKETEGDVTSVKDAKIAVYSCPFDGMITETKGTVLIKTAEELMNFSKGEENLMDAQVKAIADTGANVVVTGGKVADMALHYANKYNIMLVRLNSKWDLRRLCKTVGATALPRLTPPVLEEMGHCDSVYLSEVGDTQVVVFKHEKEDGAISTIVLRGSTDNLMDDIERAVDDGVNTFKVLTRDKRLVPGGGATEIELAKQITSYGETCPGLEQYAIKKFAEAFEAIPRALAENSGVKANEVISKLYAVHQEGNKNVGLDIEAEVPAVKDMLEAGILDTYLGKYWAIKLATNAAVTVLRVDQIIMAKPAGGPKPPSGKKDWDDDQND | – | – | – | – | 25 | 100 | 21 | 30 |
| Keratin, type I cytoskeletal 19 (protein, UniProt P08727 1-400, looked up) Keratin, type I cytoskeletal …: MTSYSYRQSSATSSFGGLGGGSVRFGPGVAFRAPSIHGGSGGRGVSVSSARFVSSSSSGAYGGGYGGVLTASDGLLAGNEKLTMQNLNDRLASYLDKVRALEAANGELEVKIRDWYQKQGPGPSRDYSHYYTTIQDLRDKILGATIENSRIVLQIDNARLAADDFRTKFETEQALRMSVEADINGLRRVLDELTLARTDLEMQIEGLKEELAYLKKNHEEEISTLRGQVGGQVSVEVDSAPGTDLAKILSDMRSQYEVMAEQNRKDAEAWFTSRTEELNREVAGHTEQLQMSRSEVTDLRRTLQGLEIELQSQLSMKAALEDTLAETEARFGAQLAHIQALISGIEAQLGDVRADSERQNQEYQRLMDIKSRLEQEIATYRSLLEGQEDHYNNLSASKVL | 0 | 753 | 0 | 0 | – | – | – | – |
